Results reported in patent EP0969854B1, “INHIBITION OF SIGNAL TRANSDUCTION BY THE BINDING OF NON-PHOSPHORYLATED COMPOSITIONS” (GEORGETOWN UNIVERSITY, priority 1996, dated 2006).
No constants are given. Whether binding was seen depends on the method and setting. Some binding calls cover weakened binding; strength is not graded here.

Protein sequences, listed by entry. Tags and fused reporters are not part of them.
UniProt P62993: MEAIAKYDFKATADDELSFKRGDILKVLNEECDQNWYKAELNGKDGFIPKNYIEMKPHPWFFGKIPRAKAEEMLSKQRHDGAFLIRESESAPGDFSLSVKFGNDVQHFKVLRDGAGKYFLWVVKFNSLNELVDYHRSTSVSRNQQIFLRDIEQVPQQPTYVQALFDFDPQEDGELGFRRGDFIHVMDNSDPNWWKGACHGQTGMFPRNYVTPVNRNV

Target: intact GST-Grb2 fusion protein (UniProt P62993)
Test: SPR competition, SHC phosphopeptide on the chip (Figure 6)

For DDPSYVNVQ [SHC control peptide (…)], the binding was “binds”.
